Laboratory results reported in US20260083130A1, “NOVEL SULFONATE BENZAMIDE COMPOUNDS FOR CONTROLLING INVERTEBRATE PESTS” (FMC CORPORATION, priority 2022, published 2026).
Some entries share one result that the patent states for a list of compounds.

Tests used:
Type in all cases: in vivo
[1] = test system: Diamond Back Moth (Plutella xylostella L.); assay: Test A: control of Diamond Back Moth, foliar spray on mustard plant; conditions: neonate larvae, assessed after six days
[2] = test system: fall armyworm (Spodoptera frugiperda (J. E. Smith)); assay: Test B: control of fall armyworm, foliar spray on corn plant; conditions: one-day-old larvae, assessed after 6 days
[3] = test system: Western Flower Thrips (Frankliniella occidentalis Pergande); assay: Test F: control of Western Flower Thrips, spray on Soleil bean plant; conditions: adult thrips, assessed after 7 days
[4] = test system: Neotropical Brown Stink Bug (Euschistus heros Pergande); assay: Test G: control of Neotropical Brown Stink Bug, spray on green bean pieces in petri dish; conditions: immature insects, assessed after five days

Measured: control efficacy (feeding damage)

CC(c1ncnn1-c1ncccn1)N(CC1CC1)C(=O)c1cc(OS(=O)(=O)C(F)(F)F)cc(C(F)(F)F)c1 (stereo not shown) [Compound 11, 3-[[(Cyclopropylmethyl)[1-[1-(2-pyrimidinyl)-1H-1,2,4-triazol-5-yl]ethyl]amino]carbonyl]-5-(trifluoromethyl)phenyl 1,1,1-trifluoromethanesulfonate]
≤ 20%: [1]; sprayed at 2 ppm | [1]; sprayed at 10 ppm | [1]; sprayed at 50 ppm | [2]; sprayed at 10 ppm | [2]; sprayed at 50 ppm | [3]; sprayed at 50 ppm | [3]; sprayed at 250 ppm

CCN(C(=O)c1cc(Cl)cc(OS(=O)(=O)C(F)(F)F)c1)C(C)c1ncnn1-c1ncccn1 (stereo not shown) [Compound 50, 3-chloro-5-[[ethyl[1-[1-(2-pyrimidinyl)-1H-1,2,4-triazol-5-yl]ethyl]amino]carbonyl]phenyl 1,1,1-trifluoromethanesulfonate]
≤ 20%: [1]; sprayed at 2 ppm | [1]; sprayed at 10 ppm | [1]; sprayed at 50 ppm | [1]; sprayed at 250 ppm | [2]; sprayed at 10 ppm | [2]; sprayed at 50 ppm | [2]; sprayed at 250 ppm | [3]; sprayed at 50 ppm | [3]; sprayed at 250 ppm

CC(NC(=O)c1cc(F)cc(OS(=O)(=O)C(F)(F)F)c1)c1ncnn1-c1ncccn1 (stereo not shown) [Compound 14, 3-Fluoro-5-[[[1-[1-(2-pyrimidinyl)-1H-1,2,4-triazol-5-yl]ethyl]amino]carbonyl]phenyl 1,1,1-trifluoromethanesulfonate]
≤ 20%: [1]; sprayed at 10 ppm | [1]; sprayed at 50 ppm | [1]; sprayed at 250 ppm | [2]; sprayed at 50 ppm | [2]; sprayed at 250 ppm | [3]; sprayed at 250 ppm

CC(NC(=O)c1cc(OS(=O)(=O)C(F)(F)F)cc(C(F)(F)F)c1)c1ncnn1-c1ncccn1 (stereo not shown) [Compound 2, 3-[[[1-[1-(2-Pyrimidinyl)-1H-1,2,4-triazol-5-yl]ethyl]amino]carbonyl]-5-(trifluoromethyl)phenyl 1,1,1-trifluoromethanesulfonate]
≤ 20%: [1]; sprayed at 2 ppm | [1]; sprayed at 10 ppm | [1]; sprayed at 50 ppm | [1]; sprayed at 250 ppm | [2]; sprayed at 2 ppm | [2]; sprayed at 10 ppm | [2]; sprayed at 50 ppm | [2]; sprayed at 250 ppm | [3]; sprayed at 50 ppm | [3]; sprayed at 250 ppm | [4]; sprayed at 50 ppm | [4]; sprayed at 250 ppm

COC(=O)N(C(=O)c1cc(Cl)cc(OS(=O)(=O)C(F)(F)F)c1)C(C)c1ncnn1-c1ncccn1 (stereo not shown) [Compound 20]
≤ 20%: [1]; sprayed at 10 ppm | [1]; sprayed at 50 ppm | [1]; sprayed at 250 ppm | [2]; sprayed at 250 ppm | [3]; sprayed at 250 ppm

CC(c1ncnn1-c1ncccn1)N(C)C(=O)c1cc(Cl)cc(OS(=O)(=O)C(F)(F)F)c1 (stereo not shown) [Compound 72]
≤ 20%: [1]; sprayed at 2 ppm | [1]; sprayed at 10 ppm | [1]; sprayed at 50 ppm | [1]; sprayed at 250 ppm | [2]; sprayed at 10 ppm | [2]; sprayed at 50 ppm | [2]; sprayed at 250 ppm | [3]; sprayed at 250 ppm

CCN(C(=O)c1cc(OS(=O)(=O)C(F)(F)F)cc(C(F)(F)F)c1)C(C)c1ncnn1-c1ncccn1 (stereo not shown) [Compound 27, 3-[[ethyl[1-[1-(2-pyrimidinyl)-1H-1,2,4-triazol-5-yl]ethyl]amino]carbonyl]-5-(trifluoromethyl)phenyl 1,1,1-trifluoromethanesulfonate]
≤ 20%: [1]; sprayed at 2 ppm | [1]; sprayed at 10 ppm | [1]; sprayed at 50 ppm | [1]; sprayed at 250 ppm | [2]; sprayed at 10 ppm | [2]; sprayed at 50 ppm | [2]; sprayed at 250 ppm | [3]; sprayed at 50 ppm | [3]; sprayed at 250 ppm

CC(NC(=O)c1cccc(OS(=O)(=O)C(F)(F)F)c1)c1ncnn1-c1ncccn1 (stereo not shown) [Compound 3, 3-[[[1-[1-(2-Pyrimidinyl)-1H-1,2,4-triazol-5-yl]ethyl]amino]carbonyl]phenyl 1,1,1-trifluoromethanesulfonate]
≤ 20%: [1]; sprayed at 10 ppm | [1]; sprayed at 50 ppm | [1]; sprayed at 250 ppm | [2]; sprayed at 250 ppm | [3]; sprayed at 250 ppm | [4]; sprayed at 250 ppm

C[C@@H](NC(=O)c1cc(OS(=O)(=O)C(F)(F)F)cc(C(F)(F)F)c1)c1ncnn1-c1ncccn1 [Compound 13, (R)3-[[[1-[1-(2-Pyrimidinyl)-1H-1,2,4-triazol-5-yl]ethyl]amino]carbonyl]-5-(trifluoromethyl)phenyl 1,1,1-trifluoromethanesulfonate; (+) enantiomer]
≤ 20%: [1]; sprayed at 2 ppm | [1]; sprayed at 10 ppm | [1]; sprayed at 50 ppm | [1]; sprayed at 250 ppm | [2]; sprayed at 2 ppm | [2]; sprayed at 10 ppm | [2]; sprayed at 50 ppm | [2]; sprayed at 250 ppm | [3]; sprayed at 50 ppm | [3]; sprayed at 250 ppm | [4]; sprayed at 50 ppm | [4]; sprayed at 250 ppm

C[C@@H](NC(=O)c1cc(Cl)cc(OS(=O)(=O)C(F)(F)F)c1)c1ncnn1-c1ncccn1 [Compound 9, 3-Chloro-5-[[[1-[1-(2-pyrimidinyl)-1H-1,2,4-triazol-5-yl]ethyl]amino]carbonyl]phenyl 1,1,1-trifluoromethanesulfonate; (+) enantiomer]
≤ 20%: [1]; sprayed at 2 ppm | [1]; sprayed at 10 ppm | [1]; sprayed at 50 ppm | [1]; sprayed at 250 ppm | [2]; sprayed at 10 ppm | [2]; sprayed at 50 ppm | [2]; sprayed at 250 ppm | [3]; sprayed at 50 ppm | [3]; sprayed at 250 ppm

CC(NC(=O)c1cc(Cl)cc(OS(=O)(=O)C(F)(F)F)c1)c1ncnn1-c1ncccn1 (stereo not shown) [Compound 4, 3-Chloro-5-[[[1-[1-(2-pyrimidinyl)-1H-1,2,4-triazol-5-yl]ethyl]amino]carbonyl]phenyl 1,1,1-trifluoromethanesulfonate]
≤ 20%: [1]; sprayed at 2 ppm | [1]; sprayed at 10 ppm | [1]; sprayed at 50 ppm | [1]; sprayed at 250 ppm | [2]; sprayed at 10 ppm | [2]; sprayed at 50 ppm | [2]; sprayed at 250 ppm | [3]; sprayed at 50 ppm | [3]; sprayed at 250 ppm | [4]; sprayed at 50 ppm | [4]; sprayed at 250 ppm
